Results are given in words; binding and its absence hold for the method and conditions named. In cells and extracts the contact can be indirect. Some entries that bind do so weakly or less than the wild type. For some assays here: Sequences can lack the tags named with a protein.
How the values were obtained:
[1] = target: FLAG-tagged MeCP2, full length (human) (UniProt P51608); assay: co-IP; in vitro binding assay: in vitro transcribed and translated FLAG-tagged MeCP2 (or fragment) incubated with one HA-tagged SEC subunit in 250 ul IP buffer, 1 hour, 4°C; IP with FLAG antibody-conjugated beads, four washes; blots for HA and FLAG
[2] = target: C-terminal yellow fluorescent protein (YFP)-tagged MeCP2 (human) (UniProt P51608); assay: split reporter; BiFC: MeCP2-cYFP coexpressed with nYFP-tagged proteins in HEK293T cells (0.5 ug pBiFC constructs, Lipofectamine 3000, 48 hours); YFP read by FACS and by confocal microscopy
[3] = target: endogenous MeCP2 (HEK293T) (human (endogenous in HEK293T)) (UniProt P51608); assay: co-IP; endogenous MeCP2 immunoprecipitated (MeCP2 antibody Sigma-Aldrich M6818 on Dynabead G, overnight, 4°C) from HEK293T lysate in IP buffer (10 mM Hepes pH 7.9, 3 mM MgCl2, 5 mM KCl, 140 mM NaCl, 0.1 mM EDTA, 0.5% NP-40, nuclease); blots for endogenous partners; normal mouse IgG as control; also in cells with non-targeting, ENL or ELL2 short hairpin RNA

Protein sequences, listed by entry. Tags and fused reporters are not part of them.
UniProt P51608: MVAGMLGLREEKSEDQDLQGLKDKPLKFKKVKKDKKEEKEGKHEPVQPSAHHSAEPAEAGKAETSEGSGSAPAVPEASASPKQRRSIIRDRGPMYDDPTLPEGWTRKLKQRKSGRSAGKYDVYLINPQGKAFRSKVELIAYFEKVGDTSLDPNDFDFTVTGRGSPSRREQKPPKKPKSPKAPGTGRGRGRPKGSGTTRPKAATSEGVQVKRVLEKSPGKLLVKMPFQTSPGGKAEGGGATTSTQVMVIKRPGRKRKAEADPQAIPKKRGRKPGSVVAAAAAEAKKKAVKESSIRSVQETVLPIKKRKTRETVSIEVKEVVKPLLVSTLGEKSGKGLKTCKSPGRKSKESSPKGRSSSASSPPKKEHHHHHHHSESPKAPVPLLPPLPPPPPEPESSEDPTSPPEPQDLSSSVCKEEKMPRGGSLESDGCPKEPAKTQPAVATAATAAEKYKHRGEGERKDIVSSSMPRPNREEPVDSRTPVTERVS

| Binder | binding [2] | also measured |
| --- | --- | --- |
| hemagglutinin (HA)-tagged AFF4 (protein, UniProt Q9UHB7 1-1163) MNREDRNVLRMKERERRNQEIQQGEDAFPPSSPLFAEPYKVTSKEDKLSSRIQSMLGNYDEMKDFIGDRSIPKLVAIPKPTVPPSADEKSNPNFFEQRHGGSHQSSKWTPVGPAPSTSQSQKRSSGLQSGHSSQRTSAGSSSGTNSSGQRHDRESYNNSGSSSRKKGQHGSEHSKSRSSSPGKPQAVSSLNSSHSRSHGNDHHSKEHQRSKSPRDPDANWDSPSRVPFSSGQHSTQSFPPSLMSKSNSMLQKPTAYVRPMDGQESMEPKLSSEHYSSQSHGNSMTELKPSSKAHLTKLKIPSQPLDASASGDVSCVDEILKEMTHSWPPPLTAIHTPCKTEPSKFPFPTKESQQSNFGTGEQKRYNPSKTSNGHQSKSMLKDDLKLSSSEDSDGEQDCDKTMPRSTPGSNSEPSHHNSEGADNSRDDSSSHSGSESSSGSDSESESSSSDSEANEPSQSASPEPEPPPTNKWQLDNWLNKVNPHKVSPASSVDSNIPSSQGYKKEGREQGTGNSYTDTSGPKETSSATPGRDSKTIQKGSESGRGRQKSPAQSDSTTQRRTVGKKQPKKAEKAAAEEPRGGLKIESETPVDLASSMPSSRHKAATKGSRKPNIKKESKSSPRPTAEKKKYKSTSKSSQKSREIIETDTSSSDSDESESLPPSSQTPKYPESNRTPVKPSSVEEEDSFFRQRMFSPMEEKELLSPLSEPDDRYPLIVKIDLNLLTRIPGKPYKETEPPKGEKKNVPEKHTREAQKQASEKVSNKGKRKHKNEDDNRASESKKPKTEDKNSAGHKPSSNRESSKQSAAKEKDLLPSPAGPVPSKDPKTEHGSRKRTISQSSSLKSSSNSNKETSGSSKNSSSTSKQKKTEGKTSSSSKEVKEKAPSSSSNCPPSAPTLDSSKPRRTKLVFDDRNYSADHYLQEAKKLKHNADALSDRFEKAVYYLDAVVSFIECGNALEKNAQESKSPFPMYSETVDLIKYTMKLKNYLAPDATAADKRLTVLCLRCESLLYLRLFKLKKENALKYSKTLTEHLKNSYNNSQAPSPGLGSKAVGMPSPVSPKLSPGNSGNYSSGASSASASGSSVTIPQKIHQMAASYVQVTSNFLYATEIWDQAEQLSKEQKEFFAELDKVMGPLIFNASIMTDLVRYTRQGLHWLRQDAKLIS |  | binding [1]: binds |
| N-terminal YFP-tagged AFF4 (protein, UniProt Q9UHB7 1-1163) MNREDRNVLRMKERERRNQEIQQGEDAFPPSSPLFAEPYKVTSKEDKLSSRIQSMLGNYDEMKDFIGDRSIPKLVAIPKPTVPPSADEKSNPNFFEQRHGGSHQSSKWTPVGPAPSTSQSQKRSSGLQSGHSSQRTSAGSSSGTNSSGQRHDRESYNNSGSSSRKKGQHGSEHSKSRSSSPGKPQAVSSLNSSHSRSHGNDHHSKEHQRSKSPRDPDANWDSPSRVPFSSGQHSTQSFPPSLMSKSNSMLQKPTAYVRPMDGQESMEPKLSSEHYSSQSHGNSMTELKPSSKAHLTKLKIPSQPLDASASGDVSCVDEILKEMTHSWPPPLTAIHTPCKTEPSKFPFPTKESQQSNFGTGEQKRYNPSKTSNGHQSKSMLKDDLKLSSSEDSDGEQDCDKTMPRSTPGSNSEPSHHNSEGADNSRDDSSSHSGSESSSGSDSESESSSSDSEANEPSQSASPEPEPPPTNKWQLDNWLNKVNPHKVSPASSVDSNIPSSQGYKKEGREQGTGNSYTDTSGPKETSSATPGRDSKTIQKGSESGRGRQKSPAQSDSTTQRRTVGKKQPKKAEKAAAEEPRGGLKIESETPVDLASSMPSSRHKAATKGSRKPNIKKESKSSPRPTAEKKKYKSTSKSSQKSREIIETDTSSSDSDESESLPPSSQTPKYPESNRTPVKPSSVEEEDSFFRQRMFSPMEEKELLSPLSEPDDRYPLIVKIDLNLLTRIPGKPYKETEPPKGEKKNVPEKHTREAQKQASEKVSNKGKRKHKNEDDNRASESKKPKTEDKNSAGHKPSSNRESSKQSAAKEKDLLPSPAGPVPSKDPKTEHGSRKRTISQSSSLKSSSNSNKETSGSSKNSSSTSKQKKTEGKTSSSSKEVKEKAPSSSSNCPPSAPTLDSSKPRRTKLVFDDRNYSADHYLQEAKKLKHNADALSDRFEKAVYYLDAVVSFIECGNALEKNAQESKSPFPMYSETVDLIKYTMKLKNYLAPDATAADKRLTVLCLRCESLLYLRLFKLKKENALKYSKTLTEHLKNSYNNSQAPSPGLGSKAVGMPSPVSPKLSPGNSGNYSSGASSASASGSSVTIPQKIHQMAASYVQVTSNFLYATEIWDQAEQLSKEQKEFFAELDKVMGPLIFNASIMTDLVRYTRQGLHWLRQDAKLIS | binds |  |
| N-terminal YFP-tagged ENL (protein, UniProt Q03111 1-559) MDNQCTVQVRLELGHRAQLRKKPTTEGFTHDWMVFVRGPEQCDIQHFVEKVVFWLHDSFPKPRRVCKEPPYKVEESGYAGFIMPIEVHFKNKEEPRKVCFTYDLFLNLEGNPPVNHLRCEKLTFNNPTTEFRYKLLRAGGVMVMPEGADTVSRPSPDYPMLPTIPLSAFSDPKKTKPSHGSKDANKESSKTSKPHKVTKEHRERPRKDSESKSSSKELEREQAKSSKDTSRKLGEGRLPKEEKAPPPKAAFKEPKMALKETKLESTSPKGGPPPPPPPPPRASSKRPATADSPKPSAKKQKKSSSKGSRSAPGTSPRTSSSSSFSDKKPAKDKSSTRGEKVKAESEPREAKKALEVEESNSEDEASFKSESAQSSPSNSSSSSDSSSDSDFEPSQNHSQGPLRSMVEDLQSEESDEDDSSSGEEAAGKTNPGRDSRLSFSDSESDNSADSSLPSREPPPPQKPPPPNSKVSGRRSPESCSKPEKILKKGTYDKAYTDELVELHRRLMALRERNVLQQIVNLIEETGHFNVTNTTFDFDLFSLDETTVRKLQSCLEAVAT | binds |  |
| endogenous AFF4 (HEK293T) (protein, UniProt Q9UHB7 1-1163) MNREDRNVLRMKERERRNQEIQQGEDAFPPSSPLFAEPYKVTSKEDKLSSRIQSMLGNYDEMKDFIGDRSIPKLVAIPKPTVPPSADEKSNPNFFEQRHGGSHQSSKWTPVGPAPSTSQSQKRSSGLQSGHSSQRTSAGSSSGTNSSGQRHDRESYNNSGSSSRKKGQHGSEHSKSRSSSPGKPQAVSSLNSSHSRSHGNDHHSKEHQRSKSPRDPDANWDSPSRVPFSSGQHSTQSFPPSLMSKSNSMLQKPTAYVRPMDGQESMEPKLSSEHYSSQSHGNSMTELKPSSKAHLTKLKIPSQPLDASASGDVSCVDEILKEMTHSWPPPLTAIHTPCKTEPSKFPFPTKESQQSNFGTGEQKRYNPSKTSNGHQSKSMLKDDLKLSSSEDSDGEQDCDKTMPRSTPGSNSEPSHHNSEGADNSRDDSSSHSGSESSSGSDSESESSSSDSEANEPSQSASPEPEPPPTNKWQLDNWLNKVNPHKVSPASSVDSNIPSSQGYKKEGREQGTGNSYTDTSGPKETSSATPGRDSKTIQKGSESGRGRQKSPAQSDSTTQRRTVGKKQPKKAEKAAAEEPRGGLKIESETPVDLASSMPSSRHKAATKGSRKPNIKKESKSSPRPTAEKKKYKSTSKSSQKSREIIETDTSSSDSDESESLPPSSQTPKYPESNRTPVKPSSVEEEDSFFRQRMFSPMEEKELLSPLSEPDDRYPLIVKIDLNLLTRIPGKPYKETEPPKGEKKNVPEKHTREAQKQASEKVSNKGKRKHKNEDDNRASESKKPKTEDKNSAGHKPSSNRESSKQSAAKEKDLLPSPAGPVPSKDPKTEHGSRKRTISQSSSLKSSSNSNKETSGSSKNSSSTSKQKKTEGKTSSSSKEVKEKAPSSSSNCPPSAPTLDSSKPRRTKLVFDDRNYSADHYLQEAKKLKHNADALSDRFEKAVYYLDAVVSFIECGNALEKNAQESKSPFPMYSETVDLIKYTMKLKNYLAPDATAADKRLTVLCLRCESLLYLRLFKLKKENALKYSKTLTEHLKNSYNNSQAPSPGLGSKAVGMPSPVSPKLSPGNSGNYSSGASSASASGSSVTIPQKIHQMAASYVQVTSNFLYATEIWDQAEQLSKEQKEFFAELDKVMGPLIFNASIMTDLVRYTRQGLHWLRQDAKLIS |  | binding [3]: binds |
| Ppp6c-nYFP (protein, UniProt Q9CQR6 1-305) MAPLDLDKYVEIARQCKYLPENDLKRLCDYVCDLLLEESNVQPVSTPVTVCGDIHGQFYDLCELFRTGGQVPDTNYIFMGDFVDRGYYSLETFTYLLALKAKWPDRITLLRGNHESRQITQVYGFYDECQTKYGNANAWRYCTKVFDMLTVAALIDEQILCVHGGLSPDIKTLDQIRTIERNQEIPHKGAFCDLVWSDPEDVDTWAISPRGAGWLFGAKVTNEFVHINNLKLICRAHQLVHEGYKFMFDEKLVTVWSAPNYCYRCGNIASIMVFKDVNTREPKLFRAVPDSERVIPPRTTTPYFL | no binding |  |

— publication PMC12652325
